Laboratory results: US20130195815A1, “METHOD FOR LABELING INSULIN-SECRETING PANCREATIC BETA CELLS AND OBTAINING PURIFIED INSULIN-SECRETING PANCREATIC B-CELLS AND AN INSULIN REPORTED” (NORTH CAROLINA CENTRAL UNIVERSITY, priority 2011, published 2013)
At least one compound was matched to its structure with a doubt left.

Tested on: INS-1 cells
Assay: GSIS assay: release of PPI-mCherry reporter into conditioned media (relative fluorescence)
Assay type: cell-based, rat
Details: high glucose 25 mM, Ex 10 nM, nifedipine 10 μM

Compound: COC(=O)C1=C(C)NC(C)=C(C(=O)OC)C1c1ccccc1[N+](=O)[O-] [nilfedipine, nifedipine]
- effect on secretion of fluorescently-labeled insulin (mCherry-insulin): inhibited
- effect on secretion of fluorescently-labeled insulin (mCherry-insulin) (listed as Nifedapine): blocks the secretion
